Results are given in words; binding and its absence hold for the method and conditions named. Some binding calls cover weakened binding; strength is not graded here. Sequences can lack the tags named with a protein.
Tests used:
[1] = molecular target: T1, IL-22R-Fc/IL-10R2-Fc heterodimer from co-expressing CHO cells (human) (UniProt Q8N6P7+Q08334); assay: ELISA: 50 ng/ml total Fc of co-expressed IL-22R-Fc/IL-10R2-Fc captured on anti-human IgG wells; bio-IL-22 5 ng/ml; streptavidin-HRP, A450
T1 sequence 1: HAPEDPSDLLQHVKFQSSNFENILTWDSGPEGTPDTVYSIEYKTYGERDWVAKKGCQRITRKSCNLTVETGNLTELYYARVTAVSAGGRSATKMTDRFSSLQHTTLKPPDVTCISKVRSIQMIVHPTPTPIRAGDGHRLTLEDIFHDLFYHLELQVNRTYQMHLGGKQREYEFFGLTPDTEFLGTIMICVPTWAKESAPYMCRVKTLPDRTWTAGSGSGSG
T1 sequence 2: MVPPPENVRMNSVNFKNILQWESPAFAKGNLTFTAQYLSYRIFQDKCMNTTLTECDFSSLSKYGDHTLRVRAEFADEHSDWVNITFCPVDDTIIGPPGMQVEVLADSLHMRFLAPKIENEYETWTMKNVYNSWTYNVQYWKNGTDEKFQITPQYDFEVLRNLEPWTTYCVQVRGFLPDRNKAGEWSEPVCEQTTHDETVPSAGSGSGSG

[2] = molecular target: T2, human IL-22R extracellular domain-Fc fusion homodimer (human) (UniProt Q8N6P7); assay: ELISA, receptor-Fc captured on anti-human IgG, streptavidin-HRP (FIG. 6A)
T2 sequence: T1 sequence 1

[3] = molecular target: T2, human IL-22R extracellular domain-Fc fusion homodimer (human); assay: ELISA: 1:1 mixture of IL-22R-Fc medium and irrelevant Fc protein captured at varied total Fc on anti-human IgG wells; bio-IL-22 30 ng/ml; streptavidin-HRP, A450
[4] = molecular target: T1, IL-22R-Fc/IL-10R2-Fc heterodimer from co-expressing CHO cells (human); assay: ELISA: 1:1 mixture of co-expressed IL-22R-Fc/IL-10R2-Fc medium and control Fc protein captured at varied total Fc on anti-human IgG wells; bio-IL-22 30 ng/ml; streptavidin-HRP, A450
[5] = molecular target: T1, IL-22R-Fc/IL-10R2-Fc heterodimer from co-expressing CHO cells (human); assay: ELISA, receptor-Fc captured on anti-human IgG (FIGS. 8A-8B)
[6] = molecular target: T2, human IL-22R extracellular domain-Fc fusion homodimer (human); assay: ELISA: 50 ng/ml IL-22R-Fc captured on anti-human IgG wells; bio-IL-22 30 ng/ml; streptavidin-HRP, A450
[7] = molecular target: T1, IL-22R-Fc/IL-10R2-Fc heterodimer from co-expressing CHO cells (human); assay: ELISA: 50 ng/ml total Fc from medium of CHO cells co-expressing IL-22R-Fc and IL-10R2-Fc captured on anti-human IgG wells; bio-IL-22 titrated; streptavidin-HRP, A450
[8] = molecular target: T1, IL-22R-Fc/IL-10R2-Fc heterodimer from co-expressing CHO cells (human); assay: ELISA, conditioned medium titrated onto anti-human IgG, bio-IL-22 30 ng/ml (FIG. 8B)
[9] = molecular target: T2, human IL-22R extracellular domain-Fc fusion homodimer (human); assay: ELISA, receptor-Fc captured on anti-human IgG (FIG. 6A)
[10] = molecular target: T3, 1:1 mixture of IL-22R-Fc homodimer and IL-10R2-Fc homodimer, immobilized together (human) (UniProt Q8N6P7+Q08334); assay: ELISA: 1:1 mixture of IL-22R-Fc medium and IL-10R2-Fc medium captured at varied total Fc on anti-human IgG wells; bio-IL-22 30 ng/ml; streptavidin-HRP, A450
T3 sequence 1: T1 sequence 1
T3 sequence 2: T1 sequence 2

[11] = molecular target: T4, human IL-22 binding protein-Fc fusion (human, UniProt Q969J5-2 22-231, limits assumed); assay: ELISA: 50 ng/ml IL-22BP-Fc captured on anti-human IgG wells; bio-IL-22 1 ng/ml; streptavidin-HRP, A450
T4 construct: Fc fusion homodimer, used as CHO conditioned medium; also called IL-22BP-Fc; huIL22BP-huFc; not shown: human IgG1 Fc
T4 sequence: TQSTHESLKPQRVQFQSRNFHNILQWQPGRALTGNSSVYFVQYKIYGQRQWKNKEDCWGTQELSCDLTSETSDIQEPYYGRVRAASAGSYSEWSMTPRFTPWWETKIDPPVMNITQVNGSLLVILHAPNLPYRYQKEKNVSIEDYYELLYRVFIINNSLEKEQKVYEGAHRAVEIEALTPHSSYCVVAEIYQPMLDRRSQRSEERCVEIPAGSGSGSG

[12] = molecular target: T2, human IL-22R extracellular domain-Fc fusion homodimer (human); assay: ELISA, 50 ng/ml total Fc captured on anti-human IgG, bio-IL-22 titrated (FIG. 8A)
[13] = molecular target: T2, human IL-22R extracellular domain-Fc fusion homodimer (human); assay: ELISA: 50 ng/ml total Fc of IL-22R-Fc CHO conditioned medium captured on anti-human IgG wells; bio-IL-22 titrated; streptavidin-HRP, A450

binding [1]: binds | binding [2]: binds | binding [3]: binds | binding [4]: binds | binding [5]: binds | binding [6]: binds | binding [7]: binds | binding [8]: binds | binding [9]: binds | binding [10]: binds | binding [11]: binds | binding [12]: binds | binding [13]: binds
B1: biotinylated N terminal His/Flag tagged human IL-22 (ligand)
chain: GSGHHHHHHGSGDYKDDDDKAPISSHCRLDKSNFQQPYITNRTFMLAKEASLADNNTDVRLIGEKLFHGVSMSERCYLMKQVLNFTLEEVLFPQSDRFQPYMQEVVPFLARLSNRLSTCHIEGDDLHIQRNVQKLKDTVKKLGESGEIKAIGELDLLFMSLRNACI
modifications: biotinylated with EZ-Link Sulfo-NHS-Biotin (sites not given)
notes: also called bio-IL-22; biotinylated IL-22

— patent US20050042220A1 (GENETICS INSTITUTE, published 2005)
